# From the supplement of paper PMC8728848
# The other results are listed elsewhere or left out.
# B1: SrpA (Streptococcus sanguis) (protein)
# chain: SSKSESTVNSQSASSETNRSSTNNGSTSSSSETARVRKRRATDTTPPTITVPSDIIAYRGEEFEFYFEITDDSGQVKNIELSTFGKPLGLNWLEYSEDNFNVPGNATSDNPLRVRVHGTVPLNEPIPADKNRAQFTRTIRAWDAAGNVSSNITFVIKYRAQTDKYNPADPTITYVDRLSSLSPSEKNAVEAAVRAANPQIPAAARITVSANGTVTITYPDSSTDTITANRVVKDLASSRSALT
# Experiments:
# Test in all cases: glycan array binding signal (z-score within array); higher = stronger binding
# Details in all cases: glycan notation: IUPAC condensed, linker removed
# [1] = biological target: Man(a1-3)[Man(a1-6)]Man(b1-4)GlcNAc(b1-4)GlcNAc
# Summary of the method: (§1)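 The binding signal is a Z-score computed within each array and averaged over linkers. Arrays of the same protein sequence at different concentrations or buffers were also averaged together. Data originate from 3228 arrays in the Consortium for Functional Glycomics database, kept only where the protein sequence was available.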
# [2] = biological target: Man(b1-4)GlcNAc
# Summary of the method: as §1
# [3] = biological target: Neu5Ac(a2-3)Gal
# Summary of the method: as §1
# [4] = biological target: Neu5Ac(a2-3)Gal(b1-3)GalNAc
# Summary of the method: as §1
# [5] = biological target: Neu5Ac(a2-3)Gal(b1-3)GalNAc(b1-3)Gal(a1-4)Gal(b1-4)Glc
# Summary of the method: as §1
# [6] = biological target: Neu5Ac(a2-3)Gal(b1-3)GalNAc(b1-3)Gal(b1-4)GlcNAc
# Summary of the method: as §1
# [7] = biological target: Neu5Ac(a2-3)Gal(b1-3)GalNAc(b1-4)[Neu5Ac(a2-3)]Gal(b1-4)Glc
# Summary of the method: as §1
# [8] = biological target: Neu5Ac(a2-3)Gal(b1-3)GalNAc6S
# Summary of the method: as §1
# [9] = biological target: Neu5Ac(a2-3)Gal(b1-3)GlcNAc
# Summary of the method: as §1
# [10] = biological target: Neu5Ac(a2-3)Gal(b1-3)GlcNAc(b1-3)Gal(b1-3)GlcNAc
# Summary of the method: as §1
# [11] = biological target: Neu5Ac(a2-3)Gal(b1-3)GlcNAc6S
# Summary of the method: as §1
# [12] = biological target: Neu5Ac(a2-3)Gal(b1-3)[Fuc(a1-4)]GlcNAc
# Summary of the method: as §1
# [13] = biological target: Neu5Ac(a2-3)Gal(b1-3)[Fuc(a1-4)]GlcNAc(b1-3)Gal(b1-4)[Fuc(a1-3)]GlcNAc
# Summary of the method: as §1
# [14] = biological target: Neu5Ac(a2-3)Gal(b1-3)[Neu5Ac(a2-3)Gal(b1-4)]GlcNAc
# Summary of the method: as §1
# [15] = biological target: Neu5Ac(a2-3)Gal(b1-3)[Neu5Ac(a2-6)]GalNAc
# Summary of the method: as §1
# [16] = biological target: Neu5Ac(a2-3)Gal(b1-4)Glc
# Summary of the method: as §1
# [17] = biological target: Neu5Ac(a2-3)Gal(b1-4)GlcNAc
# Summary of the method: as §1
# [18] = biological target: Neu5Ac(a2-3)Gal(b1-4)GlcNAc(b1-3)Gal(b1-3)GlcNAc
# Summary of the method: as §1
# [19] = biological target: Neu5Ac(a2-3)Gal(b1-4)GlcNAc(b1-3)Gal(b1-4)GlcNAc
# Summary of the method: as §1
# [20] = biological target: Neu5Ac(a2-3)Gal(b1-4)GlcNAc(b1-3)Gal(b1-4)GlcNAc(b1-3)Gal(b1-4)GlcNAc
# Summary of the method: as §1
# [21] = biological target: Neu5Ac(a2-3)Gal(b1-4)GlcNAc(b1-3)Gal(b1-4)[Fuc(a1-3)]GlcNAc
# Summary of the method: as §1
# [22] = biological target: Neu5Ac(a2-3)Gal(b1-4)GlcNAc(b1-6)[Gal(b1-3)]GalNAc
# Summary of the method: as §1
# [23] = biological target: Neu5Ac(a2-3)Gal(b1-4)GlcNAc6S
# Summary of the method: as §1
# [24] = biological target: Neu5Ac(a2-3)Gal(b1-4)[Fuc(a1-3)]GlcNAc
# Summary of the method: as §1
# [25] = biological target: Neu5Ac(a2-3)Gal(b1-4)[Fuc(a1-3)]GlcNAc(b1-3)Gal
# Summary of the method: as §1
# [26] = biological target: Neu5Ac(a2-3)Gal(b1-4)[Fuc(a1-3)]GlcNAc(b1-3)Gal(b1-4)GlcNAc
# Summary of the method: as §1
# [27] = biological target: Neu5Ac(a2-3)Gal(b1-4)[Fuc(a1-3)]GlcNAc(b1-3)Gal(b1-4)[Fuc(a1-3)]GlcNAc(b1-3)Gal(b1-4)[Fuc(a1-3)]GlcNAc
# Summary of the method: as §1
# [28] = biological target: Neu5Ac(a2-3)Gal(b1-4)[Fuc(a1-3)]GlcNAc6S
# Summary of the method: as §1
# [29] = biological target: Neu5Ac(a2-3)Gal6S(b1-4)GlcNAc
# Summary of the method: as §1
# [30] = biological target: Neu5Ac(a2-3)Gal6S(b1-4)[Fuc(a1-3)]GlcNAc
# Summary of the method: as §1
binder,measurement,setting,value
B1,glycan array binding signal (z-score),[1],-0.474
same,glycan array binding signal (z-score),[2],-0.488
same,glycan array binding signal (z-score),[3],-0.752
same,glycan array binding signal (z-score),[4],-0.679
same,glycan array binding signal (z-score),[5],-0.702
same,glycan array binding signal (z-score),[6],-0.695
same,glycan array binding signal (z-score),[7],-0.383
same,glycan array binding signal (z-score),[8],-0.767
same,glycan array binding signal (z-score),[9],0.115
same,glycan array binding signal (z-score),[10],0.129
same,glycan array binding signal (z-score),[11],-0.974
same,glycan array binding signal (z-score),[12],-0.235
same,glycan array binding signal (z-score),[13],-0.079
same,glycan array binding signal (z-score),[14],-0.086
same,glycan array binding signal (z-score),[15],0.22
same,glycan array binding signal (z-score),[16],-0.441
same,glycan array binding signal (z-score),[17],-0.448
same,glycan array binding signal (z-score),[18],-0.961
same,glycan array binding signal (z-score),[19],0.367
same,glycan array binding signal (z-score),[20],-0.256
same,glycan array binding signal (z-score),[21],1.55
same,glycan array binding signal (z-score),[22],0.075
same,glycan array binding signal (z-score),[23],-0.575
same,glycan array binding signal (z-score),[24],-0.391
same,glycan array binding signal (z-score),[25],-0.439
same,glycan array binding signal (z-score),[26],1.25
same,glycan array binding signal (z-score),[27],-0.761
same,glycan array binding signal (z-score),[28],-0.966
same,glycan array binding signal (z-score),[29],-0.1
same,glycan array binding signal (z-score),[30],0.605

# Some of the entries so far, bar-delimited.
binder | measurement | setting | value
B1 | glycan array binding signal (z-score) | [5] | -0.702
same | glycan array binding signal (z-score) | [6] | -0.695
same | glycan array binding signal (z-score) | [7] | -0.383
same | glycan array binding signal (z-score) | [8] | -0.767
same | glycan array binding signal (z-score) | [9] | 0.115
same | glycan array binding signal (z-score) | [10] | 0.129
same | glycan array binding signal (z-score) | [11] | -0.974
same | glycan array binding signal (z-score) | [12] | -0.235
same | glycan array binding signal (z-score) | [13] | -0.079
